These are yes or no findings as the source states them, for the method shown. Some entries that bind do so weakly or less than the wild type.
Molecular target: mumps virus (strain Jeryl-Lynn) large protein (L) (mumps virus (strain Jeryl-Lynn)) (UniProt C0JJA4)
Test: cryo-EM structure; L–P complex co-expressed in Sf9 and co-purified by the Strep tag of L; 2.0 μM; annealed and unannealed samples combined; 150 mM NaCl, 20 mM Tris-HCl, 6 mM MgCl2, 1 mM TCEP, pH 8.0; two conformations (L_(integral)–P, L_(body)–P); both purified

The chains behind the UniProt entries cited, without tags or fusion partners.
UniProt C0JJA4: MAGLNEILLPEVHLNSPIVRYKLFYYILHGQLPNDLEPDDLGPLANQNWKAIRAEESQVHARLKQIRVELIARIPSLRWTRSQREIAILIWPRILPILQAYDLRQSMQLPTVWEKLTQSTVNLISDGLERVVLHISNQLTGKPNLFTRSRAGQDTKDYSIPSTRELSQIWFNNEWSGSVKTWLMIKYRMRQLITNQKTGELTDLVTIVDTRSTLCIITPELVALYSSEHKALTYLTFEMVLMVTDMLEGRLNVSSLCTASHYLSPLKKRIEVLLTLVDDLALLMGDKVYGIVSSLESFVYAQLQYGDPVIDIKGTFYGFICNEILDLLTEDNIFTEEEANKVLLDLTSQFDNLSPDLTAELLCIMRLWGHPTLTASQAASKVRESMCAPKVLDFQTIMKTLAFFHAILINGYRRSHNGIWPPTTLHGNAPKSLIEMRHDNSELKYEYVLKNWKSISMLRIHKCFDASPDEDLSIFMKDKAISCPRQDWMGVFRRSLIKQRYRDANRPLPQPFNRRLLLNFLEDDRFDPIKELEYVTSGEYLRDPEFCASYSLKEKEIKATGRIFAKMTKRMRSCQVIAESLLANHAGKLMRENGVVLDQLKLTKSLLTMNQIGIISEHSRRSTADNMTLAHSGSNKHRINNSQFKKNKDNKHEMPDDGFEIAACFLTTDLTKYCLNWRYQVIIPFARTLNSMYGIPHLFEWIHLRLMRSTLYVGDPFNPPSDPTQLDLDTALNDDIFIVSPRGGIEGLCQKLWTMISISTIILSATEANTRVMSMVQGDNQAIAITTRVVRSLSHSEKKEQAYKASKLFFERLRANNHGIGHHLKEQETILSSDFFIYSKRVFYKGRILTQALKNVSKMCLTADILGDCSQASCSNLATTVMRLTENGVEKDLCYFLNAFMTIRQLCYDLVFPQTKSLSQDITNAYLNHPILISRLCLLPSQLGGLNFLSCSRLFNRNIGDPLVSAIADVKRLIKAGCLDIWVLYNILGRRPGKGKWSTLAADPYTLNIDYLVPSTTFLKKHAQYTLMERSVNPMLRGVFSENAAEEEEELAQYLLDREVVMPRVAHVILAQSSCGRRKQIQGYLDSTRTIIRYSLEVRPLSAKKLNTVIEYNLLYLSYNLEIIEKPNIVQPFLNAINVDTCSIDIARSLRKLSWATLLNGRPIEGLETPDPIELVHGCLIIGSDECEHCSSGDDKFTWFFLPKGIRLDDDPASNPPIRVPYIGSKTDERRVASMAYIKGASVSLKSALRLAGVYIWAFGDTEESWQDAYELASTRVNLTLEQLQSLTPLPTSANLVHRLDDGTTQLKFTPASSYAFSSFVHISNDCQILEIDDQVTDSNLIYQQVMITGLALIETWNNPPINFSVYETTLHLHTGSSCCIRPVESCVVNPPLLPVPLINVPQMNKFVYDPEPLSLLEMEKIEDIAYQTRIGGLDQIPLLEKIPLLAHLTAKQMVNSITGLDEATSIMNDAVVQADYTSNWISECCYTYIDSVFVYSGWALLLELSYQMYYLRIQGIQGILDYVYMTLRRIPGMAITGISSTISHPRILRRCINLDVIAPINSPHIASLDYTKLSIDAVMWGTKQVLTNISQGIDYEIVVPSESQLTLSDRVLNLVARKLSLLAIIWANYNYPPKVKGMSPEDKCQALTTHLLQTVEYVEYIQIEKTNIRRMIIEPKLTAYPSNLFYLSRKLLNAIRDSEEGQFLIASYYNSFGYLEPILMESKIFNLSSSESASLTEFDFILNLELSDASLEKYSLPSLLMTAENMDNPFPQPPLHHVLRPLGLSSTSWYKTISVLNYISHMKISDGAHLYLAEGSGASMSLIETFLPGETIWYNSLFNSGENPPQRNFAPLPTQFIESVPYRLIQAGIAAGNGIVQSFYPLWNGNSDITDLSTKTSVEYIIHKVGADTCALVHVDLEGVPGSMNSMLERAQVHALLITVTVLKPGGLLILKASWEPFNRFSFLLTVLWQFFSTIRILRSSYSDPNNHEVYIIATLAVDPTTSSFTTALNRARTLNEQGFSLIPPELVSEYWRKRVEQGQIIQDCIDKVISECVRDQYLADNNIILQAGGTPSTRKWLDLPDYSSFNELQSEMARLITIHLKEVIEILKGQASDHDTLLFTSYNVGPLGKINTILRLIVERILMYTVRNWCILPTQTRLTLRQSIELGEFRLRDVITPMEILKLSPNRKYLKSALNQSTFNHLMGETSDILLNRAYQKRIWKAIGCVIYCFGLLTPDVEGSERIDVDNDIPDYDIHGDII

B1: mumps virus (strain Jeryl-Lynn) phosphoprotein (P) (natural protein)
chain: MDQFIKQDETGDLIETGMNVANHFLSTPIQGTNSLSKASILPGVAPVLIGNPEQKNIQHPTASHQGSKTKGRGSGVRSIIVSPSEAGNGGTQIPEPLFAQTGQGGIVTTVYQDPTIQPTGSYRSVELAKIGKERMINRFVEKPRTSTPVTEFKRGGPGAAAQGQTIQEEGIDGNGASAGSKERSGSLSGATLYAHLSLPQQDSTPANVGIAPQSAISANEIMDLLRGMDARLQHLEQKVDKVLAQGSMVTQIKNELSTVKTTLATIEGMMATVKIMDPGNPTGVPVDELRRSFSDHVTIVSGPGDVSFSSSEKPTLYLDELARPVSKPRPAKQTKSQPVKDLAGQKVMITKMITDCVANPQMKQAFEQRLAKASTEDALNDIKRDIIRSAI
notes: Phosphoprotein (P) of mumps virus strain Jeryl-Lynn, GenBank AAF70389.1; domains NTD, OD, Linker2, CTD (with XD); Four P molecules (P1-P4) stand in the L–P complex; only POD, Linker2 and part of PCTD are resolved; also called MuV P; P1; not shown: Flag, C-terminal, kept
B1 was tested, and the binding was “binds”.

— PMC11101452, “Structures of the mumps virus polymerase complex via cryo-electron microscopy” (Nature Communications, 2024)
